We go through 4 molecules from doi:10.1101/257543 (bioRxiv, 2018).

Results are given in words; binding and its absence hold for the method and conditions named.

Holding throughout (experiment): SEC
The target in assay [1] is T1, BRI1 cytoplasmic domain (residues 814-1196) (A. thaliana), O22476.
T1 chain: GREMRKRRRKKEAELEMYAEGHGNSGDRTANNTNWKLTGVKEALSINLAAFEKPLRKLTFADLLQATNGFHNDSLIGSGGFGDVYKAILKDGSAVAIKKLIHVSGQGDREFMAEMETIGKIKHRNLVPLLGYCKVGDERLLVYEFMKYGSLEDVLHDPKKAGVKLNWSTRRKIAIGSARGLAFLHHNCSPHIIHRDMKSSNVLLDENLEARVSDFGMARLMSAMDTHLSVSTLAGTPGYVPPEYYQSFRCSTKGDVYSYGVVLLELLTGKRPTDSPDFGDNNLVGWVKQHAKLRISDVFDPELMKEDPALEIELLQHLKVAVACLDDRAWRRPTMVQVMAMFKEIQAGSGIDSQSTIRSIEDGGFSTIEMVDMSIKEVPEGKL
Conditions: remark: other sources report otherwise.

Assay [2] concerns the target T2, SERK3 cytoplasmic domain (residues 250-615) (A. thaliana), Q94F62.
T2 chain: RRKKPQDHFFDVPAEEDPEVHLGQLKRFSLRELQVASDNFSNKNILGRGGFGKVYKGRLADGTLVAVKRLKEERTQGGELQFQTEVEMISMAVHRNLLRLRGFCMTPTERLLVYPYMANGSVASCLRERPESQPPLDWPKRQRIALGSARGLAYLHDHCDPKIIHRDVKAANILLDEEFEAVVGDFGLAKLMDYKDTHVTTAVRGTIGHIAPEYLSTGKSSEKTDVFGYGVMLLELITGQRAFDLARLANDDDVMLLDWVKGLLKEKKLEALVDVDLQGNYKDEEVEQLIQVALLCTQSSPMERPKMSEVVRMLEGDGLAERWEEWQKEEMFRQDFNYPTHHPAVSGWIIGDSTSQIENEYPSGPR
To be noted: remark: other sources report otherwise.

The target in assay [3] is SERK1 LRR ectodomain (SERK1^24-213) (A. thaliana) (UniProt Q94AG2).
The target of assay [4] is BRI1 LRR ectodomain (BRI1^1-799) (A. thaliana) (UniProt O22476).

B1: BRI1 cytoplasmic domain (residues 814-1196), O22476 814-1196 (domain or fragment)
chain: GREMRKRRRKKEAELEMYAEGHGNSGDRTANNTNWKLTGVKEALSINLAAFEKPLRKLTFADLLQATNGFHNDSLIGSGGFGDVYKAILKDGSAVAIKKLIHVSGQGDREFMAEMETIGKIKHRNLVPLLGYCKVGDERLLVYEFMKYGSLEDVLHDPKKAGVKLNWSTRRKIAIGSARGLAFLHHNCSPHIIHRDMKSSNVLLDENLEARVSDFGMARLMSAMDTHLSVSTLAGTPGYVPPEYYQSFRCSTKGDVYSYGVVLLELLTGKRPTDSPDFGDNNLVGWVKQHAKLRISDVFDPELMKEDPALEIELLQHLKVAVACLDDRAWRRPTMVQVMAMFKEIQAGSGIDSQSTIRSIEDGGFSTIEMVDMSIKEVPEGKL
Take B1: in assay [1], the binding result is “no binding”.

B2: SERK3 cytoplasmic domain (residues 250-615), Q94F62 250-615 (domain or fragment)
chain: RRKKPQDHFFDVPAEEDPEVHLGQLKRFSLRELQVASDNFSNKNILGRGGFGKVYKGRLADGTLVAVKRLKEERTQGGELQFQTEVEMISMAVHRNLLRLRGFCMTPTERLLVYPYMANGSVASCLRERPESQPPLDWPKRQRIALGSARGLAYLHDHCDPKIIHRDVKAANILLDEEFEAVVGDFGLAKLMDYKDTHVTTAVRGTIGHIAPEYLSTGKSSEKTDVFGYGVMLLELITGQRAFDLARLANDDDVMLLDWVKGLLKEKKLEALVDVDLQGNYKDEEVEQLIQVALLCTQSSPMERPKMSEVVRMLEGDGLAERWEEWQKEEMFRQDFNYPTHHPAVSGWIIGDSTSQIENEYPSGPR
Consider B2, for which, in assay [2], the binding entry is “no binding”.

B3: SERK1 LRR ectodomain (SERK1^24-213) (domain or fragment, UniProt Q94AG2 24-213)
chain: ASANLEGDALHTLRVTLVDPNNVLQSWDPTLVNPCTWFHVTCNNENSVIRVDLGNAELSGHLVPELGVLKNLQYLELYSNNITGPIPSNLGNLTNLVSLDLYLNSFSGPIPESLGKLSKLRFLRLNNNSLTGSIPMSLTNITTLQVLDLSNNRLSGSVPDNGSFSLFTPISFANNLDLCGPVTSHPCPGS
modifications: N-glycosylated (fully glycosylated in the crystal; sites not given)
As to B3, in assay [3], the binding entry is recorded as “no binding”.

B4: BIR2 LRR ectodomain (BIR2^1-222), wild type (domain or fragment, A. thaliana, UniProt Q9LSI9 29-222, looked up)
chain: ADEDDIRCLRGLKASLTDPQNALKSWNFDNTTLGFLCNFVGVSCWNNQENRVINLELRDMGLSGKIPDSLQYCASLQKLDLSSNRLSGNIPTELCNWLPFLVSLDLSNNELNGEIPPDLAKCSFVNSLVLSDNRLSGQIPVQFSALGRLGRFSVANNDLSGRIPVFFSSPSYSSDDFSGNKGLCGRPLSSSCGG
modifications: N-glycan at Asn58 (in the crystal structure)
For the molecule B4, in assay [4], the binding entry is “no binding”.
